Measured values from PubChem BioAssay AID256 (DTP/NCI, 2004).
The list is a part of this screen's results and no random one: it is rich in T/C values a quarter to a half above the control, in often repeated tests (any T/C) and in doses without a T/C. Further doses and runs are listed elsewhere. T/C: endpoint of the treated group in % of that of the vehicle group. Some doses have a count of surviving animals in place of a T/C: the source files T/C as zero there, which appears to mark a toxic dose or a test without result, not a measured value. Counts of survivors are from the toxicity check (mostly the fifth day) where no day follows; animals may have died later. Schedule codes are those of the source, taken here to give the interval after Q, in days (D) or hours (H), and the number of doses after X. Some entries were tested several times; the results are listed from low to high. Some survivor counts are full or nearly so, which does not show that the dose was tolerated: survival well below the control is almost never listed, so the zero probably covers shortened survival too. Where survival is the endpoint, the PubChem record calls one and a half times the control and up active, and a quarter to a half above the control has no call in these data; cut-offs in other NCI protocols can differ. Additions like (4×) give the number of equal values in this list. Some T/C values are followed by the survivors on the day toxicity was checked, most often the fifth; where none is given, no animal had died by that day.

Test system: CD2F1 mice, L1210 leukemia ip, survival T/C
Assay: NCI In Vivo Anticancer Drug Screen. Data for tumor model L1210 Leukemia (intraperitoneal) in CD2F1 (CDF1) mice
Settings: higher T/C = longer survival
Outline: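 Vehicle-treated tumor-bearing mice served as controls (C) for compound-treated mice (T). Reported figure is T divided by C.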

[1] = T/C endpoint: mean survival time, dose: 128.0 mg/kg/injection, schedule: Q04DX003 (ip), vehicle: clinical formulation
[2] = T/C endpoint: mean survival time, dose: 128.0 mg/kg/injection, schedule: Q04DX003 (ip), vehicle: saline

Nc1nc([Se])c2ncn(C3OC(CO)C(O)C3O)c2n1 (configuration not stated)
T/C (T/C endpoint: mean survival time, dose: 2.0 mg/kg/injection, schedule: Q01DX009 (ip), vehicle: saline): 128, 129, 132, 136 % of control
T/C (T/C endpoint: mean survival time, dose: 2.5 mg/kg/injection, schedule: Q01DX005 (ip), vehicle: water): 132 % of control
T/C (T/C endpoint: mean survival time, dose: 3.12 mg/kg/injection, schedule: Q01DX009 (ip), vehicle: saline): 135 % of control
T/C (T/C endpoint: mean survival time, dose: 4.0 mg/kg/injection, schedule: Q01DX009 (ip), vehicle: distilled water + Tween-80): 134 % of control
T/C (T/C endpoint: mean survival time, dose: 4.0 mg/kg/injection, schedule: Q01DX009 (ip), vehicle: saline): 130, 132, 139, 143 % of control
T/C (T/C endpoint: mean survival time, dose: 4.0 mg/kg/injection, schedule: Q01DX009 (ip), vehicle: water): 136 % of control
T/C (T/C endpoint: mean survival time, dose: 4.0 mg/kg/injection, schedule: Q04DX003 (ip), vehicle: clinical formulation): 129 % of control (2×)
T/C (T/C endpoint: mean survival time, dose: 4.0 mg/kg/injection, schedule: Q04DX003 (ip), vehicle: saline): 106, 113, 118, 134 % of control
T/C (T/C endpoint: mean survival time, dose: 5.0 mg/kg/injection, schedule: Q01DX005 (ip), vehicle: water): 125 % of control
T/C (T/C endpoint: mean survival time, dose: 6.25 mg/kg/injection, schedule: Q01DX009 (ip), vehicle: saline): 132 % of control
T/C (T/C endpoint: mean survival time, dose: 8.0 mg/kg/injection, schedule: Q01DX009 (ip), vehicle: distilled water + Tween-80): 136 % of control
T/C (T/C endpoint: mean survival time, dose: 8.0 mg/kg/injection, schedule: Q01DX009 (ip), vehicle: saline): 125, 131, 132, 144 % of control
T/C (T/C endpoint: mean survival time, dose: 8.0 mg/kg/injection, schedule: Q01DX009 (ip), vehicle: water): 136 % of control
T/C (T/C endpoint: mean survival time, dose: 8.0 mg/kg/injection, schedule: Q04DX003 (ip), vehicle: DMSO): 132 % of control
T/C (T/C endpoint: mean survival time, dose: 8.0 mg/kg/injection, schedule: Q04DX003 (ip), vehicle: clinical formulation): 136 and 139 % of control
T/C (T/C endpoint: mean survival time, dose: 8.0 mg/kg/injection, schedule: Q04DX003 (ip), vehicle: saline): 113, 123, 131, 141 % of control
T/C (T/C endpoint: mean survival time, dose: 10.0 mg/kg/injection, schedule: Q01DX005 (ip), vehicle: water): 140 % of control
T/C (T/C endpoint: mean survival time, dose: 10.0 mg/kg/injection, schedule: Q01DX005 (iv), vehicle: water): 136 % of control
T/C (T/C endpoint: mean survival time, dose: 12.5 mg/kg/injection, schedule: Q01DX005 (ip), vehicle: saline): 144 % of control
T/C (T/C endpoint: mean survival time, dose: 12.5 mg/kg/injection, schedule: Q01DX009 (ip), vehicle: saline): 132 % of control
T/C (T/C endpoint: mean survival time, dose: 16.0 mg/kg/injection, schedule: Q01DX009 (ip), vehicle: saline): 131, 134, 137, 150 % of control
T/C (T/C endpoint: mean survival time, dose: 16.0 mg/kg/injection, schedule: Q04DX003 (ip), vehicle: DMSO): 136 % of control
T/C (T/C endpoint: mean survival time, dose: 16.0 mg/kg/injection, schedule: Q04DX003 (ip), vehicle: clinical formulation): 126, 137, 143 % of control
T/C (T/C endpoint: mean survival time, dose: 16.0 mg/kg/injection, schedule: Q04DX003 (ip), vehicle: saline): 125, 128, 139, 145 % of control
T/C (T/C endpoint: mean survival time, dose: 20.0 mg/kg/injection, schedule: Q01DX005 (ip), vehicle: water): 148 % of control
T/C (T/C endpoint: mean survival time, dose: 20.0 mg/kg/injection, schedule: Q01DX005 (iv), vehicle: water): 146 % of control
T/C (T/C endpoint: mean survival time, dose: 25.0 mg/kg/injection, schedule: Q01DX005 (ip), vehicle: saline): 142 % of control
T/C (T/C endpoint: mean survival time, dose: 25.0 mg/kg/injection, schedule: Q01DX009 (ip), vehicle: saline): 140 % of control
T/C (T/C endpoint: mean survival time, dose: 32.0 mg/kg/injection, schedule: Q01DX009 (ip), vehicle: saline): 136 % of control
T/C (T/C endpoint: mean survival time, dose: 32.0 mg/kg/injection, schedule: Q04DX003 (ip), vehicle: DMSO): 145 % of control
T/C (T/C endpoint: mean survival time, dose: 32.0 mg/kg/injection, schedule: Q04DX003 (ip), vehicle: clinical formulation): 126, 134, 138 % of control
T/C (T/C endpoint: mean survival time, dose: 32.0 mg/kg/injection, schedule: Q04DX003 (ip), vehicle: saline): 128, 131, 134, 143 % of control
T/C (T/C endpoint: mean survival time, dose: 40.0 mg/kg/injection, schedule: Q01DX005 (ip), vehicle: water): 141 % of control
T/C (T/C endpoint: mean survival time, dose: 50.0 mg/kg/injection, schedule: Q01DX005 (ip), vehicle: saline): 142 % of control
survivor count (T/C endpoint: mean survival time, dose: 50.0 mg/kg/injection, schedule: Q01DX009 (ip), vehicle: saline): 4 of 8
survivor count (T/C endpoint: mean survival time, dose: 64.0 mg/kg/injection, schedule: Q01DX009 (ip), vehicle: saline): 0 of 6
T/C (T/C endpoint: mean survival time, dose: 64.0 mg/kg/injection, schedule: Q04DX003 (ip), vehicle: DMSO): 125 % of control [4 of 6 alive]
T/C (T/C endpoint: mean survival time, dose: 64.0 mg/kg/injection, schedule: Q04DX003 (ip), vehicle: clinical formulation): 127, 128, 129 % of control
T/C (T/C endpoint: mean survival time, dose: 64.0 mg/kg/injection, schedule: Q04DX003 (ip), vehicle: saline): 125, 126, 130, 140 % of control
T/C (T/C endpoint: mean survival time, dose: 128.0 mg/kg/injection, schedule: Q04DX003 (ip), vehicle: DMSO): 138 % of control [5 of 6 alive]
T/C [1]: 130 % of control [4 of 6 alive]
survivor count [1]: 2 of 6 and 3 of 6
T/C [2]: 117 [5 of 6 alive] and 121 % of control
survivor count [2]: 2 of 6 and 5 of 6
T/C (T/C endpoint: median survival time, dose: 0.25 mg/kg/injection, schedule: Q03HX024 (ip), vehicle: DMSO): 125 % of control
T/C (T/C endpoint: median survival time, dose: 0.5 mg/kg/injection, schedule: Q03HX016 (ip), vehicle: DMSO): 133 % of control
T/C (T/C endpoint: median survival time, dose: 0.5 mg/kg/injection, schedule: Q03HX024 (ip), vehicle: DMSO): 141 % of control
T/C (T/C endpoint: median survival time, dose: 1.0 mg/kg/injection, schedule: Q01DX009 (ip), vehicle: DMSO): 137 % of control
T/C (T/C endpoint: median survival time, dose: 1.0 mg/kg/injection, schedule: Q03HX008 (ip), vehicle: DMSO): 147 % of control
T/C (T/C endpoint: median survival time, dose: 2.0 mg/kg/injection, schedule: Q04DX003 (ip), vehicle: DMSO): 126 % of control
T/C (T/C endpoint: median survival time, dose: 4.0 mg/kg/injection, schedule: Q01DX009 (sc), vehicle: DMSO): 125 % of control
T/C (T/C endpoint: median survival time, dose: 4.0 mg/kg/injection, schedule: Q04DX003 (ip), vehicle: DMSO): 141 % of control
T/C (T/C endpoint: median survival time, dose: 8.0 mg/kg/injection, schedule: Q01DX001 (ip), vehicle: DMSO): 126 % of control
T/C (T/C endpoint: median survival time, dose: 8.0 mg/kg/injection, schedule: Q08DX002 (ip), vehicle: DMSO): 126 % of control
T/C (T/C endpoint: median survival time, dose: 16.0 mg/kg/injection, schedule: Q01DX001 (ip), vehicle: DMSO): 128 % of control [9 of 10 alive]
survivor count (T/C endpoint: median survival time, dose: 16.0 mg/kg/injection, schedule: Q03HX008 (ip), vehicle: DMSO): 4 of 10
survivor count (T/C endpoint: median survival time, dose: 16.0 mg/kg/injection, schedule: Q03HX016 (ip), vehicle: DMSO): 4 of 10
survivor count (T/C endpoint: median survival time, dose: 16.0 mg/kg/injection, schedule: Q03HX024 (ip), vehicle: DMSO): 5 of 10
T/C (T/C endpoint: median survival time, dose: 32.0 mg/kg/injection, schedule: Q01DX001 (ip), vehicle: DMSO): 136 % of control
T/C (T/C endpoint: median survival time, dose: 32.0 mg/kg/injection, schedule: Q01DX001 (sc), vehicle: DMSO): 135 % of control
survivor count (T/C endpoint: median survival time, dose: 32.0 mg/kg/injection, schedule: Q03HX008 (ip), vehicle: DMSO): 0 of 10
survivor count (T/C endpoint: median survival time, dose: 32.0 mg/kg/injection, schedule: Q03HX016 (ip), vehicle: DMSO): 1 of 10
T/C (T/C endpoint: median survival time, dose: 32.0 mg/kg/injection, schedule: Q08DX002 (ip), vehicle: DMSO): 132 % of control
T/C (T/C endpoint: median survival time, dose: 64.0 mg/kg/injection, schedule: Q01DX001 (ip), vehicle: DMSO): 128 % of control
T/C (T/C endpoint: median survival time, dose: 64.0 mg/kg/injection, schedule: Q01DX001 (oral), vehicle: DMSO): 140 % of control
T/C (T/C endpoint: median survival time, dose: 64.0 mg/kg/injection, schedule: Q01DX001 (sc), vehicle: DMSO): 130 % of control
survivor count (T/C endpoint: median survival time, dose: 64.0 mg/kg/injection, schedule: Q03HX008 (ip), vehicle: DMSO): 0 of 10
T/C (T/C endpoint: median survival time, dose: 64.0 mg/kg/injection, schedule: Q08DX002 (ip), vehicle: DMSO): 133 % of control
T/C (T/C endpoint: median survival time, dose: 128.0 mg/kg/injection, schedule: Q01DX001 (oral), vehicle: DMSO): 148 % of control
T/C (T/C endpoint: median survival time, dose: 128.0 mg/kg/injection, schedule: Q01DX001 (sc), vehicle: DMSO): 137 % of control
survivor count (T/C endpoint: median survival time, dose: 128.0 mg/kg/injection, schedule: Q01DX009 (oral), vehicle: DMSO): 2 of 10
survivor count (T/C endpoint: median survival time, dose: 128.0 mg/kg/injection, schedule: Q04DX003 (ip), vehicle: DMSO): 5 of 10
T/C (T/C endpoint: median survival time, dose: 128.0 mg/kg/injection, schedule: Q08DX002 (ip), vehicle: DMSO): 137 % of control [8 of 10 alive]
survivor count (T/C endpoint: median survival time, dose: 256.0 mg/kg/injection, schedule: Q01DX001 (ip), vehicle: DMSO): 0 of 10
survivor count (T/C endpoint: median survival time, dose: 256.0 mg/kg/injection, schedule: Q01DX001 (oral), vehicle: DMSO): 6 of 10
survivor count (T/C endpoint: median survival time, dose: 256.0 mg/kg/injection, schedule: Q01DX001 (sc), vehicle: DMSO): 0 of 10
survivor count (T/C endpoint: median survival time, dose: 256.0 mg/kg/injection, schedule: Q01DX009 (oral), vehicle: DMSO): 0 of 10
survivor count (T/C endpoint: median survival time, dose: 256.0 mg/kg/injection, schedule: Q08DX002 (ip), vehicle: DMSO): 1 of 10
survivor count (T/C endpoint: median survival time, dose: 512.0 mg/kg/injection, schedule: Q01DX001 (ip), vehicle: DMSO): 0 of 10
survivor count (T/C endpoint: median survival time, dose: 512.0 mg/kg/injection, schedule: Q01DX001 (oral), vehicle: DMSO): 0 of 10
survivor count (T/C endpoint: median survival time, dose: 512.0 mg/kg/injection, schedule: Q01DX001 (sc), vehicle: DMSO): 0 of 10
survivor count (T/C endpoint: median survival time, dose: 1024.0 mg/kg/injection, schedule: Q01DX001 (oral), vehicle: DMSO): 0 of 10
